PubChem BioAssay AID1259254 – NCATS, 2017
The whole screen tested about 59,000 reagents; below is an unselected part. About 1,550 of all reagents (2.6%) were called active. 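G2 share is only a proxy for re-replication; each gene was hit by three separate siRNAs, and active genes were retested.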 Raw values vary from plate to plate and are shown uncorrected. Reagents against one gene are numbered here. Not given: the amount of reagent.

Assay: 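Gene knock-downs that lead to re-replication, shown by excess G2 DNA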 (primary screen)
Cell system: human HCT116 colorectal cancer cells
Reagent: single siRNA against human genes
Duration: 3 days
Read-out: 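Nuclei stained with Hoechst and imaged; cell-cycle phase assigned by DNA content; G2 share scaled per plate, non-targeting siRNA 0%, GMNN siRNA 100%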
Scale: G2 robust z-score and G2 cells, % of GMNN control: higher = more G2 cells, more excess DNA replication; raw share of cells in G2: higher = larger share of cells with G2 DNA content
Active means: 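An siRNA counts as active if its G2 robust z-score lies at least 5 MADs above the screen median; here such calls match roughly 38% of GMNN control or more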

Target gene | reagent | G2 robust z-score | G2 cells, % of GMNN control | raw share of cells in G2 (%) | call
NPM1 | 1 | 1.68 | 14.8 | 9.33 | inactive
NPM1 | 2 | -0.438 | -0.114 | 4.79 | inactive
NPM1 | 3 | -0.144 | 1.95 | 3.82 | inactive
KNSTRN | 1 | 0.695 | 7.86 | 7.42 | inactive
KNSTRN | 2 | -0.89 | -3.29 | 1.97 | inactive
KNSTRN | 3 | -0.846 | -2.99 | 1.98 | inactive
AICDA | 1 | -0.125 | 2.09 | 5.09 | inactive
AICDA | 2 | -0.0481 | 2.63 | 6.74 | inactive
AICDA | 3 | -0.0538 | 2.59 | 5.16 | inactive
NFE2L3 | 1 | -1.47 | -7.38 | 1.07 | inactive
NFE2L3 | 2 | -0.608 | -1.31 | 5.4 | inactive
NFE2L3 | 3 | 0.789 | 8.52 | 6.91 | inactive
ATP9B | 1 | -0.15 | 1.91 | 6.73 | inactive
ATP9B | 2 | -0.673 | -1.77 | 4.27 | inactive
ATP9B | 3 | -0.945 | -3.68 | 2.94 | inactive
CSNK1A1L | 1 | 0.0346 | 3.21 | 6.59 | inactive
CSNK1A1L | 2 | 0.14 | 3.96 | 6.63 | inactive
CSNK1A1L | 3 | 0.203 | 4.39 | 5.09 | inactive

The list goes on, starting with the last 3 of the part before.
Target gene | reagent | G2 robust z-score | G2 cells, % of GMNN control | raw share of cells in G2 (%) | call
CSNK1A1L | 1 | 0.0346 | 3.21 | 6.59 | inactive
CSNK1A1L | 2 | 0.14 | 3.96 | 6.63 | inactive
CSNK1A1L | 3 | 0.203 | 4.39 | 5.09 | inactive
KISS1R | 1 | 4.93 | 37.7 | 19.3 | inactive
KISS1R | 2 | -1.4 | -6.89 | 2.11 | inactive
KISS1R | 3 | 0.745 | 8.21 | 5.78 | inactive
DAAM2 | 1 | -1.36 | -6.6 | 1.93 | inactive
DAAM2 | 2 | -0.359 | 0.44 | 4.13 | inactive
DAAM2 | 3 | 0.274 | 4.9 | 5.01 | inactive
MERTK | 1 | 5.16 | 39.3 | 17.8 | active
MERTK | 2 | 0.44 | 6.06 | 7.4 | inactive
MERTK | 3 | 0.0478 | 3.3 | 4.74 | inactive
PDC | 1 | 1.41 | 12.9 | 8.98 | inactive
PDC | 2 | -0.644 | -1.56 | 3.83 | inactive
PDC | 3 | 3.38 | 26.7 | 11.5 | inactive
